Results are given in words; binding and its absence hold for the method and conditions named. In cells and extracts the contact can be indirect. Here binding means that the protein was enriched with, or labelled near, the bait; the list need not be complete.
Biological target: T1, TBP-TAP (C. albicans) (UniProt O43133)
T1 sequence: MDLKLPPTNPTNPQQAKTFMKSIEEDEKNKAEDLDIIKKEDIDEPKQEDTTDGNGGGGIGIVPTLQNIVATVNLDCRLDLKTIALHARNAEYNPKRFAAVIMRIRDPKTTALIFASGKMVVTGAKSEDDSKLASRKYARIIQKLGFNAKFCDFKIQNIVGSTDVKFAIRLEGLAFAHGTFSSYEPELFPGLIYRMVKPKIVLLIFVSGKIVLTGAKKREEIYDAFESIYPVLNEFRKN
Assay: affinity purification with mass spectrometry; two-step TAP purification: IgG-Sepharose in TAP extraction buffer (350mM NaCl), TEV cleavage, calmodulin-Sepharose, EGTA elution; MudPIT; untagged SN87 as control

B1: TAF12 (protein, UniProt Q5ADM2 1-515)
chain: MDSSAASSQEKRVGTSTPEAELNPHRAKALLAKFKEEMALAKAATDPQEREKHSELVEKIKRILIRYQEQQKQAKNNSPATKSNLTNQDSTTNTPSPLATNNNSATNVIEPKTETPDSTPMEQKPIQAPTPQHPNNASTSSATMSTTQFQPQPQPQQQTVTVEKYNHVKNTLKDMWKQVKTLEASSINETQTKKEEIDRKITELRNQMQKYHTAALRMKSKLIEQGTIPANSTPIGSPTPVSNTDPTPIANTTNTSNVTPPTEKAEENSKPNVKPPSTTTTTTSKSKPKPLSTTATNSTTKTSTPSKGSGSSKSNNRSSSQNTPGTSTSASATKTASVSTEKDAPLTATTSTSAVAPAAATVAATTAPTAAAAATSLSTASAITTKSTADPKVTPSNIPDNDGRVLTKRKLVEMINNISIDQGDAKIPIDNDVEDIFLDLADEFVRNVVQFSGRLAKHRKLDRIDVRDVQLNLERNWGLRIPGYSTDEIRAARKWQPEGEYAENVKKISKLNKDQ
  binding: binds

From paper doi:10.1101/2025.06.23.660276
